PubChem BioAssay AID1159584 | Peter MacCallum Cancer Centre – 2016
Shown is a random part of about 18,000 reagents tested. Not given: the amount of reagent, the time to read-out.

Assay: 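Knock-downs that harm CDH1-null cells more than parental MCF10A cells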 (primary screen)
Cells: human MCF10A breast epithelial cells, parental and CDH1-null
Knock-down reagent: siRNA against human genes
Read-out: 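ATP luminescence (CellTiter-Glo) viability per line relative to mean mock wells over all plates, and the ratio of CDH1-null to parental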
Direction: CDH1-null / parental viability ratio: higher = CDH1-null cells survive relatively better than parental; CDH1-null viability vs mock: higher = more viable CDH1-null cells; parental viability vs mock: higher = more viable parental cells

no.	gene	CDH1-null / parental viability ratio	CDH1-null viability vs mock (fraction of mock)	parental viability vs mock (fraction of mock)
1	NMB (neuromedin B)	0.82	0.41	0.5
2	TPSAB1 (tryptase alpha/beta 1)	1.05	0.84	0.8
3	ACOX1 (acyl-CoA oxidase 1)	1.15	1.06	0.92
4	TEDC1 (tubulin epsilon and delta complex 1)	1.28	0.5	0.39
5	IL10RA (interleukin 10 receptor subunit alpha)	0.99	1.1	1.11
6	ZMYM3 (zinc finger MYM-type containing 3)	1.05	0.84	0.8
7	PIH1D2 (PIH1 domain containing 2)	1.28	0.74	0.58
8	RBM25 (RNA binding motif protein 25)	0.59	0.55	0.93
9	TMEM132E-DT (TMEM132E divergent transcript)	0.79	0.66	0.84
10	PAGE5 (PAGE family member 5)	1.38	0.76	0.55
11	LAMA4 (laminin subunit alpha 4)	1.18	0.78	0.66
12	DCTN1 (dynactin subunit 1)	0.98	0.84	0.86
13	ORC1 (origin recognition complex subunit 1)	1	0.8	0.8

Look-ups from above:
Value for PIH1D2 (PIH1 domain containing 2) in “CDH1-null viability vs mock (fraction of mock)”: 0.74
For “CDH1-null viability vs mock (fraction of mock)”, RBM25 (RNA binding motif protein 25) has 0.55

The listing continues.
no.	gene	CDH1-null / parental viability ratio	CDH1-null viability vs mock (fraction of mock)	parental viability vs mock (fraction of mock)
14	RSL1D1 (ribosomal L1 domain containing 1)	1.14	0.89	0.78
15	SIN3A (SIN3 transcription regulator family member A)	0.83	0.78	0.94
16	CCDC174 (coiled-coil domain containing 174)	0.91	0.78	0.86
17	ARPC2 (actin related protein 2/3 complex subunit 2)	1.22	1.09	0.89
18	KRT18 (keratin 18)	0.93	0.54	0.58
19	LRCH2	0.91	0.4	0.44
20	ABHD10 (abhydrolase domain containing 10, depalmitoylase)	1.23	0.79	0.64
21	RPS16 (ribosomal protein S16)	1.55	0.34	0.22
22	HNF4G (hepatocyte nuclear factor 4 gamma)	0.91	0.96	1.06
23	RFPL3 (ret finger protein like 3)	0.77	0.6	0.78
24	THNSL1 (threonine synthase like 1)	0.96	0.94	0.98
25	KLRK1 (killer cell lectin like receptor K1)	0.96	0.76	0.79
26	SLC4A2	0.93	0.9	0.97
27	ICAM5 (intercellular adhesion molecule 5)	0.97	0.68	0.7
28	SUN1 (Sad1 and UNC84 domain containing 1)	0.66	0.58	0.88
